{"source": "patent US8748452B2", "about": "“Indolizine derivative and use thereof for medical purposes” (Kissei Pharmaceutical Co., Ltd., priority 2009, dated 2014)", "molecular_target": "T1, human URAT1 (Homo sapiens, UniProt Q96S37)", "T1 construct": "expressed in transfected cells; host or cells: COS7 cells (RIKEN CELL BANK RCB0539), transient, pcDNA3.1", "T1 sequence (Q96S37 1-553)": "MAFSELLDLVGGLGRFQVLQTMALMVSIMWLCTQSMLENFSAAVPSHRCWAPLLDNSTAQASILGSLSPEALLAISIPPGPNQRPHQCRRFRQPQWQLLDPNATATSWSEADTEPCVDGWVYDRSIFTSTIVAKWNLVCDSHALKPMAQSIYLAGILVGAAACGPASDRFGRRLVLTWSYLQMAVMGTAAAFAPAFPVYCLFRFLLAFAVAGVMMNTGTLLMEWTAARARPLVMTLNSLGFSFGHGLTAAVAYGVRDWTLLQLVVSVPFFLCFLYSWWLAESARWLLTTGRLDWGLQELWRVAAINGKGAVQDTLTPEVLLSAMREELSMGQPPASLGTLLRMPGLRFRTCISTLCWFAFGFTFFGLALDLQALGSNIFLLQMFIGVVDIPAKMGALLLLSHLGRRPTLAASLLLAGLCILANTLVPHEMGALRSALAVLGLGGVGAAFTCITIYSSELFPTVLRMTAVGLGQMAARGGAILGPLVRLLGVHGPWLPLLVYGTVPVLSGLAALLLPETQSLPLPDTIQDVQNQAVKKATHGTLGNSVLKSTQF", "experiment": "Inhibitory activity of uric acid transport with human URAT1 expressing cells", "type": "cell-based", "settings": "concentration of 10 μM; 14C-labeled uric acid 20 μM, 5 minutes uptake, COS7 cells transiently expressing human URAT1", "procedure": "(1) Preparation of transiently human URAT1 expressing cells\nFull length human URAT1 cDNA (NCBI Accession No. NM_144585) was subcloned into expression vector, pcDNA3.1 (Invitrogen). Human URAT1 expression vector was transfected into COS7 cells (RIKEN CELL BANK RCB0539) using Lipofectamine 2000 (Invitrogen). COS7 cells were seeded in collagen-coated 24 well plates (Beckton Dickinson) at 3×10^5 cells / well and cultured in D-MEM culture medium (Invitrogen) containing 10% fetal bovine serum (Sanko Junyaku) for 2 hours at 37° C. under the condition of 5% CO2. For 1 well, 2 μL of Lipofectamine 2000 was diluted in 50 μL of OPTI-MEM (Invitrogen) and allowed to stand at room temperature for 7 minutes (hereinafter referred to as Lipo2000-OPTI). For 1 well, 0.8 μg of human URAT1 expression vector was diluted in 50 μL of OPTI-MEM (Invitrogen) and combined gently with Lipo2000-OPTI. After standing at room temperature for 25 minutes, the mixture was added to COS7 cells at 100 μL/well. Furthermore, COS7 cells were cultured for 2 days at 37° C. under the condition of 5% CO2 and used for measuring inhibitory activity on the uptake. […]\nAll tests were performed on hot-plate at 37° C. […] After mixing, the radioactivity was counted in a liquid scintillation counter (PerkinElmer). The radioactivity in COS7 cells not transfected with URAT1 expression vector was also counted under the same condition as control. […]", "note": "Some results were stated once for a whole list of compounds, not compound by compound.", "data": [{"smiles": "N#Cc1cc(-c2ccc(C(=O)O)c(O)c2)n2ccccc12", "note": "[Example 17, 4-(1-Cyanoindolizine-3-yl)-2-hydroxybenzoic acid]", "values": [{"measurement": "inhibitory activity of uric acid transport", "result": "≥ 50", "unit": "%"}]}]}
